Measured values from the supplement of paper PMC12067093, “Discovery and optimisation of a covalent ligand for TRIM25 and its application to targeted protein ubiquitination” (Chemical Science, 2025).
Some of the results follow.

Sequences of proteins named here, by UniProt entry; tags and fusion partners are left off. A change or cut given only in a name is not applied to a line headed by its entry.
UniProt Q92851: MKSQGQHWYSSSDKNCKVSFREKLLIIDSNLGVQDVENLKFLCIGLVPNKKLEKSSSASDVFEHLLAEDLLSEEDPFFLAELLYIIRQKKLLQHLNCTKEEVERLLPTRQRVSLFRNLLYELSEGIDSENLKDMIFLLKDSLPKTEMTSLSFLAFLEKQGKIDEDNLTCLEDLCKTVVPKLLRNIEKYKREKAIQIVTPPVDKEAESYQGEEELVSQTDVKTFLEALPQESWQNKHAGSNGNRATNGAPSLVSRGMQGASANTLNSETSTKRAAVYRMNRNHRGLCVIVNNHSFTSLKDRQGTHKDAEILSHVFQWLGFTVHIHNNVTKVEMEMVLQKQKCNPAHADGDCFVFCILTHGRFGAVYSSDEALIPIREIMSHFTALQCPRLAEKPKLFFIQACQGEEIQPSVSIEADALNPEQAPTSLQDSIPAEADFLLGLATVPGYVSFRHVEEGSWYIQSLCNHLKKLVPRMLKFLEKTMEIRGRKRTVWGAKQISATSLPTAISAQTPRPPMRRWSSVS
UniProt Q01518, whole entry, looked up: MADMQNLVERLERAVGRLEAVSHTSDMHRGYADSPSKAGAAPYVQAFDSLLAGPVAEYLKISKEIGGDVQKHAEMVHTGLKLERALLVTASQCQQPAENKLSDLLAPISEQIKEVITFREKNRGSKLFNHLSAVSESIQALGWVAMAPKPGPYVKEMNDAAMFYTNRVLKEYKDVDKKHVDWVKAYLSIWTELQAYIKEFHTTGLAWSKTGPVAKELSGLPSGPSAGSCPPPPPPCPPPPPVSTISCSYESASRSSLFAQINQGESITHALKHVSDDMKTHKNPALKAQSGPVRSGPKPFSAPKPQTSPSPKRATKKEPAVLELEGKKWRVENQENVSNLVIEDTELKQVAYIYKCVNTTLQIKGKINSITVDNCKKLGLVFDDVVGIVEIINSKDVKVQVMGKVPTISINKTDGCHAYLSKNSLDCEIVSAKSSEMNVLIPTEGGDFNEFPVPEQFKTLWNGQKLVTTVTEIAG
UniProt P29466: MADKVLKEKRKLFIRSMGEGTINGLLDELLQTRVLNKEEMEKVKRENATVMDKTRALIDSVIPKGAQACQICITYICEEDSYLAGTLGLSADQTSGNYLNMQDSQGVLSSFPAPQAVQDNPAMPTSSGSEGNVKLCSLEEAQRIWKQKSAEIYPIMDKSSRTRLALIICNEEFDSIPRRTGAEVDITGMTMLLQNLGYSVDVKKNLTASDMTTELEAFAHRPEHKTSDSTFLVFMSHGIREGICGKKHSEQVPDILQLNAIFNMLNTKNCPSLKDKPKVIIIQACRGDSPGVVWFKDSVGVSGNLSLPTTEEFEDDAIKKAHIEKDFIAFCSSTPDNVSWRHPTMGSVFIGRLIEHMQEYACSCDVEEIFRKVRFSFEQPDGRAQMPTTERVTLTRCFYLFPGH
UniProt Q96ER9: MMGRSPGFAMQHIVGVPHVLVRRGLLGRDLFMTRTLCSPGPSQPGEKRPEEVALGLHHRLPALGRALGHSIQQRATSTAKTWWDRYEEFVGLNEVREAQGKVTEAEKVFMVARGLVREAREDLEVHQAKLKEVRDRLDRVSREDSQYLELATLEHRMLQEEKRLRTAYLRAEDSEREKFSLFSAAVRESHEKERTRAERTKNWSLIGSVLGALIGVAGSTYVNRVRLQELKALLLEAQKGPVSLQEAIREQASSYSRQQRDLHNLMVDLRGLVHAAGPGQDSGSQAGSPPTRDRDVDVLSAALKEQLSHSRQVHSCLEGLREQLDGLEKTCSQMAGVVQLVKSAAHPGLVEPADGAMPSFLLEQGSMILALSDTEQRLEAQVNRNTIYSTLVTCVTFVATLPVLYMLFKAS
UniProt P49368: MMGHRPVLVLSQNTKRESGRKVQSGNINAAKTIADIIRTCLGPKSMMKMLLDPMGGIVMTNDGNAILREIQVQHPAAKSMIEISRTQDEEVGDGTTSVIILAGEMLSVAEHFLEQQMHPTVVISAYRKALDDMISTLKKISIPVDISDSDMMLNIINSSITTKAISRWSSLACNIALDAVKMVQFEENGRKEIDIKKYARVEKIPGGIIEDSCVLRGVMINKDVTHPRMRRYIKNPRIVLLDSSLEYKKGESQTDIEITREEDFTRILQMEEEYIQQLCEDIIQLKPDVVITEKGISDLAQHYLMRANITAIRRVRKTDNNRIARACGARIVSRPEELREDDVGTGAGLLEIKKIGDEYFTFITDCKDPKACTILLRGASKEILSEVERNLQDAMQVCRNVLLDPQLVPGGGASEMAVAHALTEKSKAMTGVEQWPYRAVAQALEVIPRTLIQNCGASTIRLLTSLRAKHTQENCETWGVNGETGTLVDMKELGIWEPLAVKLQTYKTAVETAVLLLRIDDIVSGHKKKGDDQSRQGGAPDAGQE
UniProt Q8N4S0: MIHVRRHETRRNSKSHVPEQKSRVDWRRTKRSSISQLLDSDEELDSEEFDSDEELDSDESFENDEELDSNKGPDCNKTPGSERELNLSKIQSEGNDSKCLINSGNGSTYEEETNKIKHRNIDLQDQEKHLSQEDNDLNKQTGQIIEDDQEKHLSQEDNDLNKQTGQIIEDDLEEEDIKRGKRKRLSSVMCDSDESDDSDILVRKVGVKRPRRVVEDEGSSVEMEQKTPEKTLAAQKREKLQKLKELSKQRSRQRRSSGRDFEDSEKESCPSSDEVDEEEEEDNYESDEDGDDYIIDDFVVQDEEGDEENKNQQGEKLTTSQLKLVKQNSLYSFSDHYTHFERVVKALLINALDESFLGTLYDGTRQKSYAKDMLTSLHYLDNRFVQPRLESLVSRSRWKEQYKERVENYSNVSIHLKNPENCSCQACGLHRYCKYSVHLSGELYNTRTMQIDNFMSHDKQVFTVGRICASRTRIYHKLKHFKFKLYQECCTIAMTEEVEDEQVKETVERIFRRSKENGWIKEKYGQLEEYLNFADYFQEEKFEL
UniProt P49589: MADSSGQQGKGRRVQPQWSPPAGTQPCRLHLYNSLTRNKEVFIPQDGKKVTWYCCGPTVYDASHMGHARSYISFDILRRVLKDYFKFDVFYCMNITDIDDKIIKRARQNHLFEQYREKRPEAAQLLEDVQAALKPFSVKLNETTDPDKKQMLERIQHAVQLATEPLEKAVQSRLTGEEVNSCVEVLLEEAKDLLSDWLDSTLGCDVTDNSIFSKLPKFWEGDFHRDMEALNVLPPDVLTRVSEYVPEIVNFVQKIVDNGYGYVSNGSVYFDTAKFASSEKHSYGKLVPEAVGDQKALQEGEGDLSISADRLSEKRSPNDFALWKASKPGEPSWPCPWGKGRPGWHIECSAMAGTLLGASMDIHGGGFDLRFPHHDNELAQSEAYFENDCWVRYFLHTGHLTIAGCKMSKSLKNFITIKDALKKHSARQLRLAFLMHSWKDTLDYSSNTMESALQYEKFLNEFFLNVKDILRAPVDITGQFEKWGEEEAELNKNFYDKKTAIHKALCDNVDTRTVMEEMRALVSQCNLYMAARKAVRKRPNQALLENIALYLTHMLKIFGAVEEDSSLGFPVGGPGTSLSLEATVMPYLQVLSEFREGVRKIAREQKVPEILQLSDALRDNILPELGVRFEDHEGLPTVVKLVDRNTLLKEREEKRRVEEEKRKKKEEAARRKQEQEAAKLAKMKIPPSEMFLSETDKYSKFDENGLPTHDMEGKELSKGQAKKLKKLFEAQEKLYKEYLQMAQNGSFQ
UniProt Q14790: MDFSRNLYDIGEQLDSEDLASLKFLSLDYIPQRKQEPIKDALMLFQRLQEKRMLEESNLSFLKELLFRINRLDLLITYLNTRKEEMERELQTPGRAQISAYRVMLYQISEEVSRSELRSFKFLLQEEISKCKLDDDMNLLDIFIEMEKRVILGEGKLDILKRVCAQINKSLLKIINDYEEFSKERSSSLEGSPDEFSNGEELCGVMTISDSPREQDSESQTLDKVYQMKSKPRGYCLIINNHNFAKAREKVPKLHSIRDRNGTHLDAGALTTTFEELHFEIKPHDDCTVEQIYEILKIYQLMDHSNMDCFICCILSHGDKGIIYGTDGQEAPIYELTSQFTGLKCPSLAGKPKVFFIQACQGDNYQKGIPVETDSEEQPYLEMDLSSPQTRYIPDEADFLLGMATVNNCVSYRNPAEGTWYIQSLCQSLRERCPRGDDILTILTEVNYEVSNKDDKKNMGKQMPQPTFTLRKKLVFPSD
UniProt O60826, whole entry, looked up: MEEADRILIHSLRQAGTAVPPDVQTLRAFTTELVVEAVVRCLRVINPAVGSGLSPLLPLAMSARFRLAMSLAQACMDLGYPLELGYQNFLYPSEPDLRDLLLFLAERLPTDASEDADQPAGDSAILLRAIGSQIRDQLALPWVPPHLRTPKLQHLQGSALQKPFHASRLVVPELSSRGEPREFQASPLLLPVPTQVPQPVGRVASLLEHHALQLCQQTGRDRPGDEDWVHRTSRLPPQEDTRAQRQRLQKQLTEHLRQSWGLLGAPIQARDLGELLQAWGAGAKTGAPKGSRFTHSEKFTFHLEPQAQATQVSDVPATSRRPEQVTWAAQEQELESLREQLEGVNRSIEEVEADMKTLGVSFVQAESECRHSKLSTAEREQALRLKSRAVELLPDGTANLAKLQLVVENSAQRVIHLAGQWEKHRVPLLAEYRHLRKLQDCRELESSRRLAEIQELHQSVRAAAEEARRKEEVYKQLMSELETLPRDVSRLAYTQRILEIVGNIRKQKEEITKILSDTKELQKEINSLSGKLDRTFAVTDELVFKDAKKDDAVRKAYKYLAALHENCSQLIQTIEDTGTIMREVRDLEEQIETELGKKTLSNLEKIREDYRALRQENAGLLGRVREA
UniProt Q7Z6B0: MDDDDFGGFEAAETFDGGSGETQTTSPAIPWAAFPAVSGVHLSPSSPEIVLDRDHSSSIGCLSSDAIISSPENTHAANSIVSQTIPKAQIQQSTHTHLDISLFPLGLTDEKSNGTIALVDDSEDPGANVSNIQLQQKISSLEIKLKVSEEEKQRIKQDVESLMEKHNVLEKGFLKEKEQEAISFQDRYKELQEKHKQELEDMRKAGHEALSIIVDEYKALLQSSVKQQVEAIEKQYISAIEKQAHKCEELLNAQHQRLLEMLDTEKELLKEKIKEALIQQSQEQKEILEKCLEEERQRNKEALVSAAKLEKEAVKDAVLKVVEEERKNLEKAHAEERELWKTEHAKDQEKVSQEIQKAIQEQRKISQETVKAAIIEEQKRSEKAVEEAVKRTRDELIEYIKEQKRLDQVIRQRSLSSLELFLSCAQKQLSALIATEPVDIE
UniProt Q5T0F9: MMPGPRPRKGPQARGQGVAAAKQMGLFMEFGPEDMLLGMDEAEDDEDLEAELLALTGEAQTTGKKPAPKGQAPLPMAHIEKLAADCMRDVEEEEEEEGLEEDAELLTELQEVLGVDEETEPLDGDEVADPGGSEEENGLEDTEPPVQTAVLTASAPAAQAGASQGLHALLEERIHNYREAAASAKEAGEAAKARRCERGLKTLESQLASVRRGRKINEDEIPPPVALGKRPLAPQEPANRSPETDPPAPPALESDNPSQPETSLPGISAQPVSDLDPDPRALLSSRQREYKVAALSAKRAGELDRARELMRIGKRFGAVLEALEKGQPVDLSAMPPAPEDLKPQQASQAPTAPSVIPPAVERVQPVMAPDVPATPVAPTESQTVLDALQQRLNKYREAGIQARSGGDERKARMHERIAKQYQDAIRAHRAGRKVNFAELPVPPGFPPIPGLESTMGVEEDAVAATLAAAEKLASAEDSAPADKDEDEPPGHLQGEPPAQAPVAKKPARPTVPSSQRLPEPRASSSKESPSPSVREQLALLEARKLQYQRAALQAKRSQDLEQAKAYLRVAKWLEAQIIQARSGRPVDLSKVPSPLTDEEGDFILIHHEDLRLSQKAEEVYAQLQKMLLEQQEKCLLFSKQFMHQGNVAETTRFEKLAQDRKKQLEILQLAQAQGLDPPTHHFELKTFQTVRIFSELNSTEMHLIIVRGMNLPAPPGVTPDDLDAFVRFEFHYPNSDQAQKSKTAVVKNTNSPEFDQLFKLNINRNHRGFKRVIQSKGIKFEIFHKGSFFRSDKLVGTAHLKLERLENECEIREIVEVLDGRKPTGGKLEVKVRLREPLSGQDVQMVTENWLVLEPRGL
UniProt P42575: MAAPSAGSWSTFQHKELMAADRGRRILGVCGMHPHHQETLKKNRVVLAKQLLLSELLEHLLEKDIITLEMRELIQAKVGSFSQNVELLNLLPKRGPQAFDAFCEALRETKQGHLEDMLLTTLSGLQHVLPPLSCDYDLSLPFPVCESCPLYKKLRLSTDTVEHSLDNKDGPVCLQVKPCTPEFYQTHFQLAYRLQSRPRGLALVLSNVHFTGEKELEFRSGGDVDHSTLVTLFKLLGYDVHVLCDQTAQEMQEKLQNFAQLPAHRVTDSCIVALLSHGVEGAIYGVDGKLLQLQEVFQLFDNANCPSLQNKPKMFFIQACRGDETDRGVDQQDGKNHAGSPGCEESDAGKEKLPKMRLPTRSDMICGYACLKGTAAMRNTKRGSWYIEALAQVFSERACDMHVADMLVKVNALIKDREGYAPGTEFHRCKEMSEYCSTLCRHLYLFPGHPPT

Compound: CC1Cc2ccccc2N1C(=O)C1CCCN(C1)C(=O)CCl (mixture of isomers) [TRIM25 ligand 11 (diastereomer mixture)]
Assay: probe-labelled cysteine peptide fold change vs DMSO (competition) (log2 fold change); higher = less target engagement (more negative = stronger competition)
Conditions: THP-1, incubation time: 4 h
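Note: competitive chemoproteomic profiling in live THP-1 cells with an iodoacetamide desthiobiotin (IA-DTB) probe, comparing probe-labelled peptide intensities in compound-treated cells against DMSO-treated controls.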

Row | Target | probe-labelled cysteine peptide fold change (10 µM) | probe-labelled cysteine peptide fold change (50 µM)
1 | CANX_P27824_360_CESAPGCGVWQR (UniProt P27824) | 0.0154 | 0.0772
2 | CASP10_Q92851_386_EIMSHFTALQCPR (UniProt Q92851) | 0.152 | 0.172
3 | CAND2_O75155_945_CEGAEEGTR (UniProt O75155) | 0.0275 | 0.0263
4 | CAP1_Q01518_375_GKINSITVDNCK (UniProt Q01518) | 0.000915 | 0.111
5 | CASP1_P29466_362+364_LIEHMQEYACSCDVEEIFRK (UniProt P29466) | -0.216 | -0.157
6 | CCDC51_Q96ER9_331_TCSQMAGVVQLVK (UniProt Q96ER9) | -0.0573 | -0.0324
7 | CCT3_P49368_173_WSSLACNIALDAVK (UniProt P49368) | 0.0129 | 0.159
8 | CCT3_P49368_475_HTQENCETWGVNGETGTLVDMK (UniProt P49368) | 0.016 | -0.0947
9 | CCDC82_Q8N4S0_422+424_NPENCSCQACGLHR (UniProt Q8N4S0) | 0.343 | 0.0726
10 | CARS_P49589_506_ALCDNVDTR (UniProt P49589) | 0.0737 | -0.0385
11 | CAP2_P40123_430_TEGCHIYLSEDALDCEIVSAK (UniProt P40123) | 0.127 | 0.0915
12 | CASP8_Q14790_309+313_IYQLMDHSNMDCFICCILSHGDK (UniProt Q14790) | 0.128 | 0.178
13 | CCDC22_O60826_215_VASLLEHHALQLCQQTGR (UniProt O60826) | 0.0578 | -0.0071
14 | CCAR1_Q8IX12_465_SCALAEDPQELR (UniProt Q8IX12) | 0.0332 | 0.0777
15 | CASP10_Q92851_97_LLQHLNCTK (UniProt Q92851) | 0.0117 | -0.157
16 | CCDC91_Q7Z6B0_424_SLSSLELFLSCAQK (UniProt Q7Z6B0) | 0.0206 | -0.102
17 | CASP8_Q14790_309_IYQLMDHSNMDCFICCILSHGDK (UniProt Q14790) | 0.0241 | -0.374
18 | CC2D1B_Q5T0F9_634_CLLFSK (UniProt Q5T0F9) | -0.0196 | -0.166
19 | CASP4_P49662_142_LALIICNTEFDHLPPR (UniProt P49662) | -0.00871 | 0.0226
20 | CASP6_P55212_113+116_IHEVSTVSHADADCFVCVFLSHGEGNHIYAYDAK (UniProt P55212) | 0.259 | 0.113
21 | CASP10_Q92851_169_IDEDNLTCLEDLCK (UniProt Q92851) | -0.0469 | 0.0215
22 | CCDC22_O60826_441_KLQDCR (UniProt O60826) | -0.0662 | -0.108
23 | CASP2_P42575_440_EMSEYCSTLCR (UniProt P42575) | -0.0238 | -0.169
24 | CASP1_P29466_285_VIIIQACR (UniProt P29466) | -0.167 | -0.214

In another format: results already given
Row,Target,probe-labelled cysteine peptide fold change (10 µM),probe-labelled cysteine peptide fold change (50 µM)
6,CCDC51_Q96ER9_331_TCSQMAGVVQLVK (UniProt Q96ER9),-0.0573,-0.0324
7,CCT3_P49368_173_WSSLACNIALDAVK (UniProt P49368),0.0129,0.159
